Source: paper PMC12040169 (PLOS Biology, 2025)
This is one part of the list.

test system: T1, CTL2-GFP (C. trachomatis L2/434/Bu, GFP-expressing); design: species or system HeLa; Intracellular C. trachomatis growth in HeLa cells, bulk GFP fluorescence relative to DMSO; details: bulk GFP, single well; 28.5 h, 10 µM; inhibitor
T1 construct: L2/434/Bu, GFP-expressing

Structure (SMILES) | % of control remaining [%]
Cn1c(=O)c2c(nc(CN3CCCCC3)n2CC(=O)c2ccccc2)n(C)c1=O [CBK269563] | 118.103
CCCS(=O)(=O)n1c(=O)n(Cc2ccc(OC)cc2)c2ccccc21 [CBK106553] | 160.524
CCC1CCCN(C(=O)Cc2c(C)nc(-c3cccnc3)[nH]c2=O)C1 (centres unmarked) [CBK305801] | 111.072
N#CCCc1ccc(Oc2ncc(C(F)(F)F)cc2Cl)cc1 [CBK161635] | 97.3692
Cc1cccc(C)c1N1C(=O)c2ccccc2NC12C(=O)Nc1ccc([N+](=O)[O-])cc12 (centres unmarked) [CBK103749] | 130.181
O=C(O)c1ccc(CN2CCC3(C/C=C/CNC(=O)c4ccccc4OCCNC3=O)CC2)cc1 [CBK292002] | 113.692
CN1CCN(C)C(COc2ccc(C(F)(F)F)cn2)C1 (centres unmarked) [CBK113288] | 139.537
CNc1nc(C2CCN(C(=O)c3ccc(N4CCC(C)CC4)cc3)C2)nc2c1CCN(C)C2 (centres unmarked) [CBK285835] | 120.765
Cn1c(=O)c2c(nc(NCCOCCO)n2C)n(C)c1=O [CBK288164] | 111.366
Cc1nn(-c2ccc(N3CCNCC3)nn2)c(=O)c2ccccc12 [CBK270067] | 155.375
CCn1c(=O)n(CC(=O)NCc2cccc(F)c2)c2cccnc21 [CBK283891] | 99.4883
Cc1ccc(S(=O)(=O)c2cccc(S(N)(=O)=O)c2)cc1S(N)(=O)=O [CBK264535] | 127.96
Clc1ccccc1CSc1nc[nH]n1 [CBK026950] | 102.538
COC(=O)c1ccccc1NC(=O)C(C)Oc1ccc(Cl)cc1C (centres unmarked) [CBK262388] | 131.668
CCOc1cc(/C=C2\N=C(c3ccc(OC)cc3)OC2=O)cc(Br)c1OCC(=O)OC [CBK102552] | 115.746
COCCc1noc(CC2CCN(c3ncncc3C#N)CC2)n1 [CBK304178] | 115.618
COC(=O)c1ccsc1NS(=O)(=O)c1cc(F)c(Br)cc1F [CBK039068] | 154.751
O=C(NCCCn1ccnc1)c1cc2c(ccc3ccccc32)oc1=O [CBK263543] | 100
O=C(Nc1ccc(-c2nc3cc(-c4nc5cc(NC(=O)c6cccs6)ccc5[nH]4)ccc3[nH]2)cc1)c1cccs1 [CBK261614] | 100
COCc1nnc(Sc2nccc(C(F)(F)F)n2)s1 [CBK093790] | 103.515
CC(=O)N1CCN(CC[C@@H]2CC[C@H](O)[C@@H](C(=O)N(C)Cc3ccccc3)O2)CC1 [CBK288716] | 103.596
CS(=O)(=O)Nc1ccc2cc(-c3ccsc3)cnc2n1 [CBK085665] | 117.622
O=C(Cn1cccc(C(=O)NC2CCCCC2)c1=O)Nc1nc2c(s1)CCCCC2 [CBK286056] | 137.684
Cc1ccn2cc(CNC(=O)CCC(C)N3CCN(C)CC3)nc2c1 (centres unmarked) [CBK306628] | 131.983
CCn1c(CN2CCC(n3nc(C)cc3C)CC2)nc2ccccc21 [CBK281615] | 110.143

Some of the entries above in a different format:
Structure (SMILES)	% of control remaining [%]
O=C(O)c1ccc(CN2CCC3(C/C=C/CNC(=O)c4ccccc4OCCNC3=O)CC2)cc1 [CBK292002]	113.692
CNc1nc(C2CCN(C(=O)c3ccc(N4CCC(C)CC4)cc3)C2)nc2c1CCN(C)C2 (centres unmarked) [CBK285835]	120.765
Cc1nn(-c2ccc(N3CCNCC3)nn2)c(=O)c2ccccc12 [CBK270067]	155.375
COC(=O)c1ccccc1NC(=O)C(C)Oc1ccc(Cl)cc1C (centres unmarked) [CBK262388]	131.668
COCCc1noc(CC2CCN(c3ncncc3C#N)CC2)n1 [CBK304178]	115.618
O=C(Nc1ccc(-c2nc3cc(-c4nc5cc(NC(=O)c6cccs6)ccc5[nH]4)ccc3[nH]2)cc1)c1cccs1 [CBK261614]	100
CS(=O)(=O)Nc1ccc2cc(-c3ccsc3)cnc2n1 [CBK085665]	117.622
O=C(Cn1cccc(C(=O)NC2CCCCC2)c1=O)Nc1nc2c(s1)CCCCC2 [CBK286056]	137.684
CCn1c(CN2CCC(n3nc(C)cc3C)CC2)nc2ccccc21 [CBK281615]	110.143

(next part)

Structure (SMILES) | % of control remaining [%]
Cc1cc2c(s1)c1cnn(Cc3ccncc3)c(=O)c1n2C [CBK284188] | 101.003
O=C(CSc1nnc(Cc2ccccc2)n1-c1ccc(Cl)cc1)Nc1cc(Cl)ccc1O [CBK269061] | 154.543
OCC1CCC(O)C(CO)N1 (centres unmarked) [CBK022827C] | 110.417
O=C(O)c1cccc(NC(=O)c2cc(-n3cnnc3)ccc2Cl)c1 [CBK268026] | 103.941
C[S+]([O-])CCn1c2ccccc2c2c(N3CCCC3)nc(N3CCCC3)nc21 (centres unmarked) [CBK017586] | 123.832
COCCn1c(SC(C)C(=O)N2CCNC2=O)nc2ccccc21 (centres unmarked) [CBK305832] | 107.034
COc1ccc(-c2nc(=S)c3c(n2CCCN(C)C)CC(C)(C)OC3)cc1 [CBK267844] | 123.71
Oc1ccc(-c2n[nH]c(C(F)(F)F)c2Oc2ccc(F)cc2)c(O)c1 [CBK264440] | 85.452
COc1cccc(CNCC2CCCO2)c1OCc1ccccc1 (centres unmarked) [CBK269798C] | 68.8621
Cc1nccn1CCC(=O)NC(c1ccncc1)c1cccs1 (centres unmarked) [CBK281440] | 130.73
CCCC/C=C/c1cc(NCCC)n2nccc2n1 [CBK037127] | 78.2444
O=S(=O)(c1ccc(-c2ccccc2)cc1)N1CCCN(Cc2ccc(F)c(C(F)(F)F)c2)CC1 [CBK063115] | 103.873
CCCS(=O)(=O)N1Cc2c(ncn2C)C[C@H]1C(=O)OC [CBK288991] | 152.459
O[C@H]1[C@H](NCC2CC2)[C@H]2CO[C@H](O2)[C@@H]1N1CCOCC1 [CBK288819] | 141.455
COc1ccc(CCNC(=O)CCCc2cn(C)c3ccccc23)cc1OC [CBK061740] | 106.548
Cc1c(CN(Cc2ccccc2)CC2CCCO2)cnn1C (centres unmarked) [CBK283263] | 112.81
CCC(C)(CC(=O)O)CC(=O)N1CCC2(CC1)OCCc1c2[nH]c2ccccc12 (centres unmarked) [CBK047051] | 116.781
O=C(Nn1cnnc1)c1cccc(C(=O)Nn2cnnc2)c1 [CBK091759] | 110.822
CCSc1nc(SCC)c2c3c([nH]c2n1)CCCC3 [CBK019936] | 122.647
Cn1c(-c2ccc(-c3nc4cnccc4n3C)cc2)nc2cnccc21 [CBK261423] | 119.346
Cc1ccc(OCC(O)CN(C)S(=O)(=O)O)c([N+](=O)[O-])c1 (centres unmarked) [CBK262062K] | 98.0683
CN1CCN(c2ccc(-c3cc(NC4CCCCC4)ncn3)cn2)CC1 [CBK090899] | 85.2861
COCCn1c(SC(C)C(=O)NC2CC2)nc2ccc(Br)cc2c1=O (centres unmarked) [CBK305481] | 102.592
O=C(NCc1c(F)cccc1F)C1(c2ccccc2)CCCC1 [CBK149527] | 70.8491
COc1ccc(C)cc1NS(=O)(=O)CC(C)C [CBK111346] | 69.3395
